Results: patent publication US20240150290A1, “HETEROCYCLIC P2Y14 RECEPTOR ANTAGONISTS” (priority 2021, published 2024)
Some results were stated once for a whole list of compounds, not compound by compound.

Tested on: PLE
Test: Esterase cleavage of prodrugs in the presence of PLE
Type: in vitro ADME
Conditions: pH 7.3, PLE, 37° C.

SMILES	Percent cleavage at 72 h
CN(C)C(=O)COC(=O)c1cc(-c2ccc(-c3cc(CO)on3)cc2)c2ccc(-c3ccc(C(F)(F)F)cc3)cc2c1 [Compound 37b, 2-(Dimethylamino)-2-oxoethyl 4-(4-(5-(hydroxymethyl)isoxazol-3-yl)phenyl)-7-(4-(trifluoromethyl)phenyl)-2-naphthoate]	< 50%
CC(=O)N1CCC(c2ccc(-c3cc(C(=O)OCC(=O)N(C)C)cc4cc(-c5ccc(C(F)(F)F)cc5)ccc34)cc2)CC1 [Compound 37c, 2-(Dimethylamino)-2-oxoethyl 4-(4-(1-acetylpiperidin-4-yl)phenyl)-7-(4-(trifluoromethyl)phenyl)-2-naphthoate]	< 50%
